From paper PMC10681733

Amino acid sequences for entries named in this document (tags omitted).
UniProt Q9NP66: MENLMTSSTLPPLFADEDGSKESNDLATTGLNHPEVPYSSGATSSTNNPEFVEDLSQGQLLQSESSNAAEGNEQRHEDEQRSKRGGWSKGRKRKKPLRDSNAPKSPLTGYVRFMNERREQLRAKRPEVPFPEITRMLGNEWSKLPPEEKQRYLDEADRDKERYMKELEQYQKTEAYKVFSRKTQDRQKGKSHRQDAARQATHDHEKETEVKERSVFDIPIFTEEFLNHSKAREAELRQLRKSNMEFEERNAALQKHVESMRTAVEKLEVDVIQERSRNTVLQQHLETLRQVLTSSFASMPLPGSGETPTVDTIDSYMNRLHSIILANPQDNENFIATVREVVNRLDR
UniProt O95816: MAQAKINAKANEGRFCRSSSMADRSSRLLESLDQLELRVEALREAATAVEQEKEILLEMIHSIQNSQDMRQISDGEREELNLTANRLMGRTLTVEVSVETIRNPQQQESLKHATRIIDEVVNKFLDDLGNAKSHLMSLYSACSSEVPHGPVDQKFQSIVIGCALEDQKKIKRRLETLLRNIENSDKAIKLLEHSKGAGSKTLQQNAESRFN
UniProt Q8IZ40: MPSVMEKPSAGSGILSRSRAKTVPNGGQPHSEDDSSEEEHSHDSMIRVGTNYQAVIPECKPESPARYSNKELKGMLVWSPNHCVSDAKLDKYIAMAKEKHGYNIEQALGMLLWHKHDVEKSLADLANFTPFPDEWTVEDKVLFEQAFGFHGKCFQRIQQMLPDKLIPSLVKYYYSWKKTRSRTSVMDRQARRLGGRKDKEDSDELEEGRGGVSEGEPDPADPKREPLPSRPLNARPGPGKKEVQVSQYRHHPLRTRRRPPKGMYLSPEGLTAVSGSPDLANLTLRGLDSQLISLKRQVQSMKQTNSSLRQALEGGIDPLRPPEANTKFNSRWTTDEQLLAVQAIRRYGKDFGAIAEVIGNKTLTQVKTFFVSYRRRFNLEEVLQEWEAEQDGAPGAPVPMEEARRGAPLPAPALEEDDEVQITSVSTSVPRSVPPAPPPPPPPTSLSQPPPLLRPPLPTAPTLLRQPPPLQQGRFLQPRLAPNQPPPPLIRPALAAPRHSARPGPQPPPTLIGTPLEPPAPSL
UniProt P25787: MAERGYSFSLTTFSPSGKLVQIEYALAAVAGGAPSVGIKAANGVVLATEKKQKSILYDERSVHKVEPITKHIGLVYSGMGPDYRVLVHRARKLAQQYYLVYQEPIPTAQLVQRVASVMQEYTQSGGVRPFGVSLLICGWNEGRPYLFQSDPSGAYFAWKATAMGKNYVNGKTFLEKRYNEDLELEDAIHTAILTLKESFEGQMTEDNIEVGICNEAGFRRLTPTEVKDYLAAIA
UniProt Q92769: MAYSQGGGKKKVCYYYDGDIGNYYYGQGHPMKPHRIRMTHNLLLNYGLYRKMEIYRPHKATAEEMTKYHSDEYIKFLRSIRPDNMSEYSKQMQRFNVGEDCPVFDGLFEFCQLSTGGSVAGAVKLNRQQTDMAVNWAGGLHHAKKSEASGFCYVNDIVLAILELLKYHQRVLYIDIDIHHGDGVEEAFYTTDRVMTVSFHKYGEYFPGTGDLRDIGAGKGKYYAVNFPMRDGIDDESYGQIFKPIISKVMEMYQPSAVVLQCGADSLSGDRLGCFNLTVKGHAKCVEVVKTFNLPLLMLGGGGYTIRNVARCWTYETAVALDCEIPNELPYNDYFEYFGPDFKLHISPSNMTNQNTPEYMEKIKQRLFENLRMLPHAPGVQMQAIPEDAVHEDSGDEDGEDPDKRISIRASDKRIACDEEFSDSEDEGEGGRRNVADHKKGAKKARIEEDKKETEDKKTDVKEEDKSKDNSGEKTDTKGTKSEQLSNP
UniProt Q03112: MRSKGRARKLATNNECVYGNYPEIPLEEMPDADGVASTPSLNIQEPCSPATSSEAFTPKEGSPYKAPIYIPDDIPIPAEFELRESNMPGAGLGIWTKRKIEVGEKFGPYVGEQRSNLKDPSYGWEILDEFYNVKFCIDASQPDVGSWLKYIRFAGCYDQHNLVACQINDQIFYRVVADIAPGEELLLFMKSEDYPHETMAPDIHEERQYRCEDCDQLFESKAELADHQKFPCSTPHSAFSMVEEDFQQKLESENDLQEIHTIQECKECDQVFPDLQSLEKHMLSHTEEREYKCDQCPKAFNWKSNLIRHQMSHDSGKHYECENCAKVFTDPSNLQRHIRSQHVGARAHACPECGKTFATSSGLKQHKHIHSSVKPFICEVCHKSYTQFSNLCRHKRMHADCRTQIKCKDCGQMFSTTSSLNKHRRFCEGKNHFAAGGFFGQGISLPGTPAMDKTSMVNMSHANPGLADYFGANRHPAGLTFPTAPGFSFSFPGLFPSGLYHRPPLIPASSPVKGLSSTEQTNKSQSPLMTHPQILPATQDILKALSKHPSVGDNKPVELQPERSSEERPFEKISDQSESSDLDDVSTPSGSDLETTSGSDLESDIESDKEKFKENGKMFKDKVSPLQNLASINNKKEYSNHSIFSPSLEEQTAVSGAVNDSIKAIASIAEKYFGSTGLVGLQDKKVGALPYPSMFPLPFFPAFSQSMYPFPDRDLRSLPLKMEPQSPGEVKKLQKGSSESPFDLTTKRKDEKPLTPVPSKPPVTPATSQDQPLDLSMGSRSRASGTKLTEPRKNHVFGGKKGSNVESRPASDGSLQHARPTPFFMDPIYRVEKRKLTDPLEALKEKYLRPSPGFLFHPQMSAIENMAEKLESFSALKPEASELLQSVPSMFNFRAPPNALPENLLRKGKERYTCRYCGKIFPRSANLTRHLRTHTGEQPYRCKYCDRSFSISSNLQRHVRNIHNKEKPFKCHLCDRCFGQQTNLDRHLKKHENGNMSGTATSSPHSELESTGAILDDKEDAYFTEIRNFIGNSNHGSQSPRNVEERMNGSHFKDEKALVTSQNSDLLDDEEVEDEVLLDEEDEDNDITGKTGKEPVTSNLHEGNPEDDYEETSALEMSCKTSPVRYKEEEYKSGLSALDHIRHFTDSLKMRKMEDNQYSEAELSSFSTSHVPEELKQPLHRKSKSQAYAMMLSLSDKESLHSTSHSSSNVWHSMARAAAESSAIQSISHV
UniProt P61244: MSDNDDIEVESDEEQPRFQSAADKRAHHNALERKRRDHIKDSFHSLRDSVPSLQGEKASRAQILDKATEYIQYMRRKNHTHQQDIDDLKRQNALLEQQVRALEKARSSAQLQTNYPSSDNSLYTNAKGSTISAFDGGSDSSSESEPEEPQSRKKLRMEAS
UniProt Q9UKL0: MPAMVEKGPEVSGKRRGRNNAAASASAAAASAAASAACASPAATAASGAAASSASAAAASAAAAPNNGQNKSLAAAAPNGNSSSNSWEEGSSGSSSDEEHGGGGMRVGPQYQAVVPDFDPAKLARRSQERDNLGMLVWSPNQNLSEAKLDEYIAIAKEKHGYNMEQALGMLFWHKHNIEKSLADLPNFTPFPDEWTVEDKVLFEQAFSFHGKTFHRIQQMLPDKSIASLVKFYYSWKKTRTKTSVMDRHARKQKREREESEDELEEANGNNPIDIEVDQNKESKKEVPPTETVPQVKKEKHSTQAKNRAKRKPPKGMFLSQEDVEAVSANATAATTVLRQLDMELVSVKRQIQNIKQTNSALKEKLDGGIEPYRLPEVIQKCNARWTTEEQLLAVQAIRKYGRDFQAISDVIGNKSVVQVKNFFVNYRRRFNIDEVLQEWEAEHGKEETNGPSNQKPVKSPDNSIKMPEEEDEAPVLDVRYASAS
UniProt Q14186: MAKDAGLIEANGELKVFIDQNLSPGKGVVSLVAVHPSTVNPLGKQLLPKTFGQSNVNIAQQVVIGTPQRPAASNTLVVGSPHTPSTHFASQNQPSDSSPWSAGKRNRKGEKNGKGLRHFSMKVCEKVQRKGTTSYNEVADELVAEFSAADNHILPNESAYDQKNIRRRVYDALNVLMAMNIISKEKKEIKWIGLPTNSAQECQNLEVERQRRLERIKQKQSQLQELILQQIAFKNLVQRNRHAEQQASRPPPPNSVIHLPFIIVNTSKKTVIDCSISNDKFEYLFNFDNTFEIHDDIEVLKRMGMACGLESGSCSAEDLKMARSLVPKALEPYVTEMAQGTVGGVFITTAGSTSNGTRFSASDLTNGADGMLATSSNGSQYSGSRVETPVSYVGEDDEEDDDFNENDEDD

Tests used:
[1] = target: T1, V5-tagged version of the endogenous GSE1 protein (human) (UniProt Q14687); assay: affinity purification with mass spectrometry; GSE1-V5 captured on V5-beads from HAP1 whole cell extract (Hunt buffer), untreated and 6 h etoposide treated cells; control HAP1 WT cells; on-bead digest, label-free quantification
T1 sequence: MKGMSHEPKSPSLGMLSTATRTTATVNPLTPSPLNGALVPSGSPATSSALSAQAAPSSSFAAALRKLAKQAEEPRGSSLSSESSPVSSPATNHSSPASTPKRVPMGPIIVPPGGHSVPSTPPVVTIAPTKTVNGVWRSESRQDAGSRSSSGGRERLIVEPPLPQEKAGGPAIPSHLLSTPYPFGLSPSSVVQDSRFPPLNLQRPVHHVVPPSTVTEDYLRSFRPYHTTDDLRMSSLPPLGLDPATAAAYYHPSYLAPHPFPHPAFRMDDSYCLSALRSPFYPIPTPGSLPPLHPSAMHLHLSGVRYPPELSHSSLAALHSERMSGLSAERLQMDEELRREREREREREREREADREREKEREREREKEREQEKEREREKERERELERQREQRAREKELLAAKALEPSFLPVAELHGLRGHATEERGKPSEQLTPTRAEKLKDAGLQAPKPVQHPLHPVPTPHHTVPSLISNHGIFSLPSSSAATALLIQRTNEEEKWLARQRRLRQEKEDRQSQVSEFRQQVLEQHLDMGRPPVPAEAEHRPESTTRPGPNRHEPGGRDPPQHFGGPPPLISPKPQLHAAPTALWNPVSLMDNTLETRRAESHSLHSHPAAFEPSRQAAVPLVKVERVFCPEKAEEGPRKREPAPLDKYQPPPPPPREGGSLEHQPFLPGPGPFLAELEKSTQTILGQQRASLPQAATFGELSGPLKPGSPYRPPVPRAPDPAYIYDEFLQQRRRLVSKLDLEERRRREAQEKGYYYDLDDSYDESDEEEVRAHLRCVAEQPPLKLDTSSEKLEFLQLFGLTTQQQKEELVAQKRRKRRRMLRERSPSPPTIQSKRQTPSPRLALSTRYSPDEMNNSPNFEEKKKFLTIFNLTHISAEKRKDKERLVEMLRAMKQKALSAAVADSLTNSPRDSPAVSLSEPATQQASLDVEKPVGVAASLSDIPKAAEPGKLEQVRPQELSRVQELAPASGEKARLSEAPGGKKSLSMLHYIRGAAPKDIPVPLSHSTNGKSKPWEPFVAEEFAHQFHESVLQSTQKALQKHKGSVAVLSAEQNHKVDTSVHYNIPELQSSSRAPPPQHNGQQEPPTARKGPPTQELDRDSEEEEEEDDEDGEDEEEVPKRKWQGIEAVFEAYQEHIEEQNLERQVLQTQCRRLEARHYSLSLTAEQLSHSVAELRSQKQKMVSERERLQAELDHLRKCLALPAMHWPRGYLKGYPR

[2] = target: C-terminally FLAG-tagged wildtype HDAC1 (UniProt Q13547); assay: affinity purification with mass spectrometry; HDAC1-FLAG captured on crosslinked M2-FLAG beads from HAP1 whole cell extract (Hunt buffer: 20 mM Tris/HCl pH 8.0, 100 mM NaCl, 1 mM EDTA, 0.5% NP-40), overnight 4°C; control HDAC1 KO cells; on-bead digest, label-free quantification

binding [1] | binding [2] | Substance
binds |  | HMB20A (from UniProt Q9NP66 1-347)
binds |  | RCOR3 (from UniProt Q9P2K3 1-495)
 | binds | SQSTM1 (from UniProt Q13501 1-440)
 | binds | BAG2 (from UniProt O95816 1-211)
binds |  | RCOR2 (from UniProt Q8IZ40 1-523)
binds |  | PSMA2 (from UniProt P25787 1-234)
binds |  | HDAC2 (endogenous, human) (from UniProt Q92769 1-488)
 | binds | MECOM (from UniProt Q03112 1-1230)
 | binds | MAX (from UniProt P61244 1-160)
binds |  | CoREST (from UniProt Q9UKL0 1-485)
binds |  | HDAC1 (endogenous, human) (from UniProt Q13547 1-482)
 | binds | TFDP1 (from UniProt Q14186 1-410)

These are yes or no findings as the source states them, for the method shown. Binding seen in cells or lysates may run through a third protein. A yes stands for co-enrichment or nearness to the bait. Other partners may have been found. For part of these data: Where a sequence is shown, tags or fusion partners need not be part of it.
